# Data from PubChem BioAssay AID901 (National Center for Advancing Translational Sciences (NCATS), 2007).
# Some of the results follow. The main result of the screen is listed elsewhere. These columns were measured beside it and carry no call. Compounds called inactive in the main read-out are mostly missing here. The note in brackets gives the kind of curve behind each potency; many fits are weak.
# Test: qHTS Assay for Identifying the Cell-Membrane Permeable IMPase Inhibitors
# Settings: CHO-M1 cells, IP1 accumulation, HTRF TR-FRET ratio; measured here: donor channel 620 nm AC50
row,SMILES,AC50
1,COCCCN1C(=O)C(O)=C(C(=O)c2ccco2)C1c1ccccc1 (stereo not drawn),"12600 nM [rising, partial curve]"
2,CCOC(=O)CN1CC23C=CC(O2)C(C(=O)Nc2ccc(OCC)cc2)C3C1=O (stereo not drawn),"2820 nM [rising, partial curve, poor fit]"
3,CCn1c(NC)cc(=O)n(C)c1=O,"3160 nM [falling, single point]"
4,O=C(NCc1ccc(Cl)c(Cl)c1)c1ccco1,"2000 nM [rising, full curve, poor fit]"
5,COC(=O)c1ccc(C)c(NC(=O)CN(c2cc(OC)ccc2OC)S(C)(=O)=O)c1,"10 nM [rising, full curve, poor fit]"
6,CCOC(=O)CN=C1CC(C)(C)CC2=C1Sc1ncnc(N(C)C)c1N2,"12600 nM [falling, single point]"
7,Cc1ccc(-n2ncc3c(=O)[nH]c(SCC(=O)N4CCN(c5ccccc5)CC4)nc32)cc1,"31600 nM [rising, single point]"
8,COC(=O)c1ccc(NC(=O)CSc2nnc(-c3ccncc3)n2N)cc1,"3160 nM [falling, full curve, poor fit]"
9,Cc1ccc(N(Cc2cc3ccccc3[nH]c2=O)S(=O)(=O)c2ccccc2)cc1,"3.55 nM [rising, full curve, poor fit]"
10,COC(=O)C1=C(C)NC(=O)NC1c1ccsc1 (stereo not drawn),"15800 nM [falling, single point]"
11,CCCOc1ccc(C(=O)Nc2ccc(NC(=O)c3ccccc3)c(Br)c2)cc1,"14100 nM [rising, single point]"
12,COC(=O)C1=C(C)NC(C)=C(C(=O)OC)C1C1CC=CCC1 (stereo not drawn),"35500 nM [rising, single point]"
13,CCCOc1cccc(C2/C(=C(/O)c3ccccc3)C(=O)C(=O)N2CCN(C)C)c1 (stereo not drawn),"1000 nM [falling, full curve, poor fit]"
14,Cc1ccc(N=C2NC(=O)c3cc([N+](=O)[O-])ccc32)cc1,"35500 nM [rising, single point]"
15,O=C(NCCSc1ccccc1)c1ccccc1,"20 nM [falling, full curve, poor fit]"
16,Cc1cc(C)n(C(=O)CNc2ccc(C)c(C)c2)n1,"6310 nM [falling, single point]"
17,COc1ccc2nc(N3CCC(C)CC3)c(C#N)cc2c1,"31.6 nM [falling, full curve, poor fit]"
18,CCc1cc(C=C(Cl)Cl)oc(=O)c1C,"12.6 nM [rising, partial curve, poor fit]"
19,Nn1c(SCc2cn3ccsc3n2)nnc1-c1ccncc1,"631 nM [falling, full curve]"
20,CCCCc1nnc(NC(=O)C2CCCO2)s1 (stereo not drawn),"7080 nM [falling, partial curve, poor fit]"
21,O=C(N/C(=C/c1cccc(Br)c1)c1nc(=S)[nH][nH]1)c1ccccc1,"14100 nM [rising, single point]"
22,COc1cc(C)nc(N2CCCC(C(=O)Nc3cccc(Cl)c3C)C2)n1 (stereo not drawn),"10000 nM [falling, partial curve, poor fit]"

# Pulled by compound from above, two records:
row,SMILES,AC50
19,Nn1c(SCc2cn3ccsc3n2)nnc1-c1ccncc1,"631 nM [falling, full curve]"
11,CCCOc1ccc(C(=O)Nc2ccc(NC(=O)c3ccccc3)c(Br)c2)cc1,"14100 nM [rising, single point]"

# The list continues.

row,SMILES,AC50
1,Cc1ccc(C)c(C(=O)n2cnnc2N)c1,"1260 nM [rising, single point]"
2,O=C(Nc1sc2c(c1C(=O)O)CCC2)c1cccs1,"31600 nM [falling, single point]"
3,COc1ccc(/C=N\n2nnc3ccccc32)cc1,"251 nM [falling, full curve, poor fit]"
4,CCC(=O)N1C(=O)CCN(C(C)=O)c2ccccc21,"158 nM [falling, full curve]"
5,CCn1c(SCC(=O)Nc2cc(C)on2)nnc1-c1ccccc1,"158 nM [rising, full curve, poor fit]"
6,Cc1ccc(C(=O)c2c[nH]cc2-c2ccccc2)cc1,"794 nM [falling, full curve]"
7,COc1ccc(-c2cc(C(F)(F)F)c(C#N)c(SCC(=O)Nc3nc(C)co3)n2)cc1,"2000 nM [rising, full curve, poor fit]"
8,Cc1n[nH]c(C)c1S(=O)(=O)N1CCCC(C(=O)N2CCN(c3ccc(Cl)cc3)CC2)C1 (stereo not drawn),"12600 nM [falling, single point]"
9,O=C(c1ccccn1)c1conc1C(=O)c1ccc(Br)cc1,"39.8 nM [rising, full curve, poor fit]"
10,CCOC(=O)c1ccc(N2CN=C3SCC(=O)N3C2)cc1,"794 nM [falling, full curve, poor fit]"
11,CCNC(=S)N/N=C/c1cccs1,"10000 nM [falling, partial curve]"
12,CCCc1ccc(OCc2ccc(C(=O)Nc3ccccc3C(=O)OC)o2)cc1,"2820 nM [falling, single point]"
13,O=C(NC1CCCCCC1)C1c2ccccc2C(=O)N1C1CC1 (stereo not drawn),"5010 nM [falling, single point]"
14,CCOC(=O)N1CCN(C(=O)CCc2c(C)nc3c(c(C)nn3-c3ccc(C)c(C)c3)c2C)CC1,"3980 nM [rising, partial curve]"
15,COc1ccc2c(c1OC)C(=O)N(c1cccc(C)c1)C2=O,"1000 nM [falling, full curve, poor fit]"
16,O=C(O)CCSc1nnc(-c2ccncc2)n1-c1ccccc1,"7.94 nM [falling, full curve, poor fit]"
17,CC1CCCC(C)N1NC(=O)c1ccc(Cl)c(S(N)(=O)=O)c1 (stereo not drawn),"3160 nM [falling, single point]"
18,O=C(COC(=O)c1ccc(Br)o1)NCCCc1ccccc1,"10000 nM [rising, partial curve, poor fit]"
19,COc1ccc(C/C(N)=N/n2cnnc2)cc1,"25.1 nM [rising, partial curve, poor fit]"
20,CCc1sc(N(C(=O)Cc2ccccc2)c2ccccc2)nc1-c1ccccc1,"2000 nM [falling, partial curve]"
21,CCOC(=O)c1ccc(NS(=O)(=O)c2cc(-c3nnnn3C(C)C)ccc2OC)cc1,"20 nM [rising, full curve, poor fit]"
